Test results published in PubChem BioAssay AID260 (DTP/NCI, 2004).
The list shows only some results of the screen, not a fair sample: it gathers tests that were run many times, whatever their T/C, doses with no T/C, and many T/C values between a quarter and a half above the control. Other doses and runs of a compound stand elsewhere. T/C gives the treated animals as a percentage of the vehicle group. Some entries give survivors of the animals treated and no T/C: the source holds a T/C of zero for them, seemingly a mark for toxic or unscored doses. Some survivor counts are full or nearly so, which does not show that the dose was tolerated: survival well below the control is almost never listed, so the zero probably covers shortened survival too. Survivors were counted at the toxicity check, usually on the fifth day, unless a day is given; later deaths do not show. Schedule codes are those of the source, read here as Q, the interval in days (D) or hours (H), X, the number of doses. Some entries were tested several times; the results are listed from low to high. For survival time, the PubChem record calls one and a half times the control and up active, and a quarter to a half above the control has no call in these data; cut-offs in other NCI protocols can differ. Brackets with × stand for listed records that agree. Some T/C values are followed by the survivors on the day toxicity was checked, most often the fifth; where none is given, no animal had died by that day.

Test system: CD2F1 mice, intracerebral L1210 leukemia, survival T/C
Assay: NCI In Vivo Anticancer Drug Screen. Data for tumor model L1210 Leukemia (intracerebral) in CD2F1 (CDF1) mice
Conditions: higher T/C = longer survival
Procedure: The antitumor activity of compounds was measured in mice bearing transplantable tumors. Survival or tumor size were measured and the results are expressed as the measurement made in the treated group (T) divided by the measurement made in the vehicle treated control group (C). The tumor model used in this assay is L1210 Leukemia (intracerebral) in CD2F1 (CDF1) mice

[1] = T/C endpoint: median survival time, dose: 3.0 mg/kg/injection, schedule: Q01DX009 (ip), vehicle: saline
[2] = T/C endpoint: median survival time, dose: 200.0 mg/kg/injection, schedule: Q01DX009 (ip), vehicle: saline
[3] = T/C endpoint: median survival time, dose: 100.0 mg/kg/injection, schedule: Q01DX009 (ip), vehicle: saline

Which T/C (T/C endpoint: mean survival time, dose: 0.75 mg/kg/injection, schedule: Q01DX009 (ip), vehicle: saline) does the source give for `Nc1ncn(C2OC(CO)C(O)C2O)c(=O)n1` (stereo unspecified) here?
The T/C was 127 and 128 % of control.

What about the survivor count (T/C endpoint: mean survival time, dose: 1.5 mg/kg/injection, schedule: Q01DX009 (ip), vehicle: saline) of the same compound?
The survivor count was 0 of 6 and 4 of 6.

And the survivor count (T/C endpoint: mean survival time, dose: 3.0 mg/kg/injection, schedule: Q01DX009 (ip), vehicle: saline)?
The survivor count was 0 of 6.

What about the survivor count (T/C endpoint: mean survival time, dose: 6.0 mg/kg/injection, schedule: Q01DX009 (ip), vehicle: saline) of the same compound?
The survivor count was 0 of 6.

And the T/C (T/C endpoint: median survival time, dose: 0.38 mg/kg/injection, schedule: Q01DX009 (ip), vehicle: saline)?
Its T/C is 128 % of control.

What about the T/C (T/C endpoint: median survival time, dose: 0.57 mg/kg/injection, schedule: Q03HX024 (ip), vehicle: saline) of the same compound?
Its T/C is 136 % of control.

What about the T/C (T/C endpoint: median survival time, dose: 0.75 mg/kg/injection, schedule: Q01DX009 (ip), vehicle: saline) of the same compound?
The T/C was 136 % of control.

And the T/C (T/C endpoint: median survival time, dose: 1.13 mg/kg/injection, schedule: Q03HX024 (ip), vehicle: saline)?
The T/C was 137 % of control.

And the T/C (T/C endpoint: median survival time, dose: 1.5 mg/kg/injection, schedule: Q01DX009 (ip), vehicle: saline)?
The T/C was 138 % of control.

And the T/C (T/C endpoint: median survival time, dose: 1.56 mg/kg/injection, schedule: Q01DX009 (ip), vehicle: saline)?
The T/C was 139 % of control.

What about the T/C [1] of the same compound?
The T/C was 139 % of control.

What about the T/C (T/C endpoint: median survival time, dose: 4.0 mg/kg/injection, schedule: Q01DX005 (ip), vehicle: water) of the same compound?
Its T/C is 137 % of control.

What about the survivor count (T/C endpoint: median survival time, dose: 9.0 mg/kg/injection, schedule: Q03HX024 (ip), vehicle: saline) of the same compound?
Its survivor count is 4 of 6.

What about the T/C (T/C endpoint: median survival time, dose: 37.5 mg/kg/injection, schedule: Q03HX024 (ip), vehicle: saline) of the same compound?
Its T/C is 128 % of control.

And the T/C [2]?
The T/C was 138 % of control.

`O=c1[nH]cc(F)c(=O)[nH]1` was tested. Which T/C (T/C endpoint: mean survival time, dose: 25.0 mg/kg/injection, schedule: Q01DX009 (ip), vehicle: saline) did it give?
Its T/C is 139 % of control.

And the T/C (T/C endpoint: mean survival time, dose: 30.0 mg/kg/injection, schedule: Q01DX009 (ip), vehicle: saline)?
Its T/C is 138 % of control.

`Nc1nc(=S)c2ncn(C3CC(O)C(CO)O3)c2[nH]1` (stereo unspecified) was tested. Which T/C (T/C endpoint: mean survival time, dose: 5.0 mg/kg/injection, schedule: Q01DX001 (ip), vehicle: steroid suspending solution) did it give?
Its T/C is 128 % of control.

Which results are given for `O=P1(NCCCl)OCCCN1CCCl` (stereo unspecified)?
T/C (T/C endpoint: mean survival time, dose: 100.0 mg/kg/injection, schedule: Q01DX001 (ip), vehicle: water): 129 % of control; T/C (T/C endpoint: mean survival time, dose: 200.0 mg/kg/injection, schedule: Q01DX001 (ip), vehicle: water): 137 % of control; T/C (T/C endpoint: mean survival time, dose: 400.0 mg/kg/injection, schedule: Q01DX001 (ip), vehicle: water): 148 % of control [7 of 8 alive]; survivor count (T/C endpoint: mean survival time, dose: 800.0 mg/kg/injection, schedule: Q01DX001 (ip), vehicle: water): 0 of 8; survivor count (T/C endpoint: median survival time, dose: 640.0 mg/kg/injection, schedule: Q01DX001 (ip), vehicle: saline): 6 of 10

`CC[n+]1ccc(Nc2ccc(NC(=O)c3ccc(Nc4cc[n+](CC)c5ccc(N)cc45)cc3)cc2)cc1` was tested. Which survivor count (T/C endpoint: mean survival time, dose: 8.0 mg/kg/injection, schedule: Q01DX009 (ip), vehicle: saline) did it give?
The survivor count was 0 of 7.

And the survivor count (T/C endpoint: mean survival time, dose: 16.0 mg/kg/injection, schedule: Q01DX009 (ip), vehicle: saline)?
The survivor count was 0 of 7.

What does the source list for `C[C@]12CCC(=O)C=C1CC[C@@H]1[C@@H]2[C@@H](O)C[C@@]2(C)[C@H]1CC[C@]2(O)C(=O)COP(=O)(O)OCC1OC(n2ccc(N)nc2=O)C(O)C1O` (stereo partly specified)?
T/C (T/C endpoint: median survival time, dose: 37.5 mg/kg/injection, schedule: Q01DX005 (ip), vehicle: other): 130 % of control; T/C (T/C endpoint: median survival time, dose: 75.0 mg/kg/injection, schedule: Q01DX005 (ip), vehicle: other): 148 % of control

How did the T/C (T/C endpoint: median survival time, dose: 25.0 mg/kg/injection, schedule: Q01DX009 (ip), vehicle: saline) turn out when `CNc1nc(N(C)C)nc(N(C)C)n1` was run?
The T/C was 93, 100, 109 % of control (2×).

And the T/C (T/C endpoint: median survival time, dose: 50.0 mg/kg/injection, schedule: Q01DX009 (ip), vehicle: saline)?
Its T/C is 102, 103, 106, 110 % of control.

What about the T/C [3] of the same compound?
Its T/C is 95, 109, 113 % of control.

And the survivor count [3]?
Its survivor count is 6 of 6.

And the survivor count [2]?
Its survivor count is 5 of 6 and 6 of 6.

With `CN(C)N=Nc1ccccc1C(=O)O` as the compound, how does the survivor count (T/C endpoint: mean survival time, dose: 60.0 mg/kg/injection, schedule: Q01DX007 (ip), vehicle: other) read?
Its survivor count is 1 of 6.

For `O=C1C(N2CC2)=C(N2CCCC(O)C2)C(=O)C(N2CC2)=C1N1CCCC(O)C1` (stereo unspecified), which T/C (T/C endpoint: mean survival time, dose: 6.0 mg/kg/injection, schedule: Q04DX003 (ip), vehicle: saline) is on record?
The T/C was 127 % of control.

What about the T/C (T/C endpoint: mean survival time, dose: 8.0 mg/kg/injection, schedule: Q04DX003 (ip), vehicle: saline) of the same compound?
The T/C was 130 % of control.

With `CCCCCCCCCCCCCCCCCC(=O)Nc1ccn(C2OC(CO)C(O)C2O)c(=O)n1` (stereo unspecified) as the compound, how does the T/C (T/C endpoint: median survival time, dose: 12.5 mg/kg/injection, schedule: Q01DX009 (ip), vehicle: saline with Tween-80) read?
The T/C was 144 % of control.

`CC(=O)NNC(=O)c1ccccn1` was tested. Which survivor count (T/C endpoint: median survival time, dose: 400.0 mg/kg/injection, schedule: Q01DX005 (ip), vehicle: Klucel (hydroxypropylcellulose) (HPC)) did it give?
The survivor count was 0 of 10.

What about the survivor count (T/C endpoint: median survival time, dose: 800.0 mg/kg/injection, schedule: Q01DX005 (ip), vehicle: Klucel (hydroxypropylcellulose) (HPC)) of the same compound?
The survivor count was 0 of 10.

For `CN(Cc1cnc2nc(N)nc(N)c2n1)c1ccc(C(=O)N[C@@H](CCC(=O)O)C(=O)O)cc1`, which T/C (T/C endpoint: median survival time, dose: 4.6 mg/kg/injection, schedule: Q04DX003 (ip), vehicle: saline) is on record?
Its T/C is 128 % of control.

What about the T/C (T/C endpoint: median survival time, dose: 9.2 mg/kg/injection, schedule: Q04DX003 (ip), vehicle: saline) of the same compound?
The T/C was 142 % of control.

What about the survivor count (T/C endpoint: median survival time, dose: 73.5 mg/kg/injection, schedule: Q04DX003 (ip), vehicle: saline) of the same compound?
The survivor count was 5 of 6.

Which T/C (T/C endpoint: median survival time, dose: 134.0 mg/kg/injection, schedule: Q01DX009 (ip), vehicle: saline) does the source give for `Nc1nc(F)nc2c1ncn2C1OC(COP(=O)(O)O)C(O)C1O` (stereo unspecified) here?
The T/C was 131 % of control.

Which T/C (T/C endpoint: mean survival time, dose: 125.0 mg/kg/injection, schedule: Q01DX009 (ip), vehicle: saline) does the source give for `Nc1nc(F)nc2c1ncn2C1OC(COC=O)C(OC=O)C1O` (stereo unspecified) (tested in a mixture with another compound) here?
The T/C was 138 % of control [9 of 10 alive].

And the T/C (T/C endpoint: mean survival time, dose: 150.0 mg/kg/injection, schedule: Q01DX009 (ip), vehicle: saline)?
Its T/C is 142 % of control.

Which results are given for `CN(C)N=Nc1ccccc1`?
T/C (T/C endpoint: mean survival time, dose: 25.0 mg/kg/injection, schedule: Q01DX009 (ip), vehicle: Klucel (hydroxypropylcellulose) (HPC)): 127 and 147 % of control; survivor count (T/C endpoint: mean survival time, dose: 100.0 mg/kg/injection, schedule: Q01DX009 (ip), vehicle: Klucel (hydroxypropylcellulose) (HPC)): 0 of 6, 1 of 6, 2 of 6; survivor count (T/C endpoint: mean survival time, dose: 200.0 mg/kg/injection, schedule: Q01DX009 (ip), vehicle: Klucel (hydroxypropylcellulose) (HPC)): 0 of 6

Which results are given for `COC(COC(=O)N1CCN(C=O)CC1)C1=C(N2CC2)C(=O)C(C)=C(N2CC2)C1=O` (stereo unspecified)?
T/C [1]: 125 % of control [9 of 10 alive]; survivor count (T/C endpoint: median survival time, dose: 12.0 mg/kg/injection, schedule: Q01DX009 (ip), vehicle: saline): 10 of 10

Which results are given for `O=C(Nc1ccccc1)c1c(O)[nH]c(=S)[nH]c1=O`?
T/C (T/C endpoint: median survival time, dose: 100.0 mg/kg/injection, schedule: Q01DX009 (ip), vehicle: saline with Tween-80): 128 % of control; survivor count (T/C endpoint: median survival time, dose: 200.0 mg/kg/injection, schedule: Q01DX009 (ip), vehicle: saline with Tween-80): 3 of 6

Which T/C (T/C endpoint: mean survival time, dose: 111.0 mg/kg/injection, schedule: Q01DX009 (ip), vehicle: saline with Tween-80) does the source give for `Nc1nc(F)nc2c1ncn2C1OC(CO)C(O)C1O` (stereo unspecified) here?
Its T/C is 126 % of control.

What about the T/C (T/C endpoint: mean survival time, dose: 133.0 mg/kg/injection, schedule: Q01DX009 (ip), vehicle: saline with Tween-80) of the same compound?
Its T/C is 130 % of control.

Which survivor count (T/C endpoint: median survival time, dose: 48.0 mg/kg/injection, schedule: Q01DX005 (ip), vehicle: saline) does the source give for `CC[n+]1c(-c2ccccc2)c2cc(N)ccc2c2ccc(N)cc21` here?
Its survivor count is 9 of 10.

What about the survivor count (T/C endpoint: median survival time, dose: 96.0 mg/kg/injection, schedule: Q01DX005 (ip), vehicle: saline) of the same compound?
The survivor count was 2 of 10.

Which T/C (T/C endpoint: median survival time, dose: 6.25 mg/kg/injection, schedule: Q01DX009 (ip), vehicle: Klucel (hydroxypropylcellulose) (HPC)) does the source give for `O=S1(=O)CS(=O)(=O)OCCO1` here?
Its T/C is 143 % of control.

For `CC1CCC(NC(=O)N(CCCl)N=O)CC1` (stereo unspecified), which T/C (T/C endpoint: median survival time, dose: 8.0 mg/kg/injection, schedule: Q01DX001 (ip), vehicle: other) is on record?
The T/C was 134 % of control.

And the T/C (T/C endpoint: median survival time, dose: 25.0 mg/kg/injection, schedule: Q01DX001 (ip), vehicle: DMSO)?
Its T/C is 126 % of control.

What about the T/C (T/C endpoint: median survival time, dose: 50.0 mg/kg/injection, schedule: Q01DX001 (oral), vehicle: saline + alcohol) of the same compound?
The T/C was 134 % of control.

And the survivor count (T/C endpoint: median survival time, dose: 128.0 mg/kg/injection, schedule: Q01DX001 (ip), vehicle: other)?
The survivor count was 2 of 6.

And the survivor count (T/C endpoint: median survival time, dose: 200.0 mg/kg/injection, schedule: Q01DX001 (ip), vehicle: saline + alcohol)?
The survivor count was 2 of 6.
